Measured values from patent publication US20080311111A1.
Results are given in words; binding and its absence hold for the method and conditions named. Some binding calls cover weakened binding; strength is not graded here.

Sequences of proteins named here, by UniProt entry; tags and fusion partners are left off. A change or cut given only in a name is not applied to a line headed by its entry. Residues count along the entry.
UniProt P14778: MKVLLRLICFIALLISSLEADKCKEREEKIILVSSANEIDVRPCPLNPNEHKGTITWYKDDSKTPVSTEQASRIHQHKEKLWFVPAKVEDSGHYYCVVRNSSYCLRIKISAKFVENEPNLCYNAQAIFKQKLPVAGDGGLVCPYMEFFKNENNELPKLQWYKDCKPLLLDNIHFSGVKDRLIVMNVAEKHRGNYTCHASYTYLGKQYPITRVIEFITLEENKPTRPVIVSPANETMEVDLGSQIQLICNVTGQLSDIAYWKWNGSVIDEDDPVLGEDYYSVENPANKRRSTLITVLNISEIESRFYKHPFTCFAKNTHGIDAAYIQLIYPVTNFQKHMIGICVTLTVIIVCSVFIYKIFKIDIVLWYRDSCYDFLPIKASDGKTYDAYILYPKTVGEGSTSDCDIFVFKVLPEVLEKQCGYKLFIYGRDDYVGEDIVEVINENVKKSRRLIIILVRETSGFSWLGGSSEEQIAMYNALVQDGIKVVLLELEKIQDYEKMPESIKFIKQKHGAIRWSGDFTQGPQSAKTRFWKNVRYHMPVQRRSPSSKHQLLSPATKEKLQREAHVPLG
IL-1R1-Fc fusion protein (Axxora): residues 18-336 of P14778
recombinant IL-1R1 (R&D Systems): residues 18-332 of P14778
UniProt P18510, residues 26-177: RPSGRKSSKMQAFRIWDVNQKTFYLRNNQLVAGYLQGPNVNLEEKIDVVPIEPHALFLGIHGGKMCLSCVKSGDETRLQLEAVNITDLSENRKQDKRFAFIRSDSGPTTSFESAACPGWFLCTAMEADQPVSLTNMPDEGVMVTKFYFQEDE

Legend:
[1] = molecular target: recombinant IL-1R1 (R&D Systems) (UniProt P14778); test: SPR (BIACORE 3000), IL-1R1 on CM5 chip, 100 nM IL-1ra
[2] = molecular target: IL-1R1-Fc fusion protein (Axxora) (UniProt P14778); test: competition ELISA, IL-1R1-Fc coated, competitor 500 pM IL-1ra
[3] = molecular target: IL-1R1-Fc fusion protein (Axxora) (UniProt P14778); test: competition ELISA, IL-1R1 coated plate, competitor 500 pM IL-1ra

Interleukin 1 receptor antagonist (IL-1ra) (from UniProt P18510 26-177) (ligand)
binding [1]: binds

B1: Interleukin-1α (IL-1α) (ligand, UniProt P01583 113-271, looked up)
chain: SAPFSFLSNVKYNFMRIIKYEFILNDALNQSIIRANDQYLTAAALHNLDEAVKFDMGAYKSSKDDAKITVILRISKTQLYVTAQDEDQPVLLKEMPEIPKTITGSETNLLFFWETHGTKNYFTSVAHPNLFIATKQDYWVCLAGGPPSITDFQILENQA
binding [2]: binds | binding [3]: binds
